Measurements reported in PubChem BioAssay AID1224828 (NIAID, 2016).

Aim: 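Find genes required for NF-kappaB p65 moving into the nucleus after LPS in mouse macrophages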 (primary screen)
Cells: mouse RAW264.7 G9 macrophage reporter cells (GFP-p65, Tnf promoter-mCherry)
Reagents: siRNA pool against mouse genes, 100 nM
Time to read-out: 2 days siRNA transfection, then 40 min LPS before fixation
Treatment: LPS (Salmonella minnesota R595) at 10 ng/ml
Measurement: 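Microscopy ratio of nuclear to perinuclear-ring GFP-p65 signal, scaled to the plate median; gene score is the average of two replicate robust z-scores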
Scale: p65 translocation robust z-score: higher = more nuclear NF-kappaB p65 after LPS than the plate median; nuclear/cytoplasmic p65 ratio: higher = more nuclear NF-kappaB p65
Hit rule: 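Called active when z exceeds 3.3 or falls under -1.56 (median of Tlr4 controls), giving activity score of at least 50; no calls for control wells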
Calls: active = hit (p65 shift raised or lowered); inactive = no clear change
Shown is a random part of about 17,000 deposited reagents. In the full data, 762 (4.5%) are marked active. 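Active calls include both raised and lowered p65 entry, mostly lowered; wells with fewer than 50 cells lack a z-score.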 Raw values are not corrected between plates.

Gene,p65 translocation robust z-score,"nuclear/cytoplasmic p65 ratio, rep 1","nuclear/cytoplasmic p65 ratio, rep 2",low cell count flag,activity call
Pgrmc2 (progesterone receptor membrane component 2),-0.41,1.41,1.39,enough cells to score,inactive
Capza3 (capping actin protein of muscle Z-line subunit alpha 3),-2.55,1.21,1.36,enough cells to score,active
Bmerb1 (bMERB domain containing 1),,1.31,1.19,fewer than 50 cells per well; well left out of scoring,inactive
Or2g1 (olfactory receptor family 2 subfamily G member 1),-1.76,1.51,1.21,enough cells to score,active
C3 (complement component 3),-0.83,1.47,1.47,enough cells to score,inactive
"Fabp5 (fatty acid binding protein 5, epidermal)",-1.29,1.29,1.2,enough cells to score,inactive
Nkapl (NFKB activating protein-like),,1.05,1.11,fewer than 50 cells per well; well left out of scoring,inactive
Pld5 (phospholipase D family member 5),,1.47,1.81,fewer than 50 cells per well; well left out of scoring,inactive
"Dpy30 (dpy-30, histone methyltransferase complex regulatory subunit)",,1.23,1.38,fewer than 50 cells per well; well left out of scoring,inactive
Xrcc6 (X-ray repair cross complementing 6),-1.17,1.25,1.25,enough cells to score,inactive
Snurf (SNRPN upstream reading frame),,1.3,1.3,fewer than 50 cells per well; well left out of scoring,inactive
Wdr37 (WD repeat domain 37),,1.17,1.05,fewer than 50 cells per well; well left out of scoring,inactive
Fmo3 (flavin containing monooxygenase 3),0.15,1.44,1.41,enough cells to score,inactive
Csta2 (cystatin A family member 2),-0.35,1.55,1.57,enough cells to score,inactive
BC024139 (cDNA sequence BC024139),0.28,1.31,1.89,enough cells to score,inactive
Slc35c1,-1.21,1.3,1.2,enough cells to score,inactive
Nfyb (nuclear transcription factor-Y beta),-0.8,1.35,1.3,enough cells to score,inactive
Tmem107 (transmembrane protein 107),-1.49,1.28,1.29,enough cells to score,inactive
Fbxo21 (F-box protein 21),-1.27,1.36,1.2,enough cells to score,inactive
Kash5 (KASH domain containing 5),-2.38,1.39,1.16,enough cells to score,active
4833432P19Rik (retired record),-0.15,1.27,1.24,enough cells to score,inactive
"Ralgapa1 (Ral GTPase activating protein, alpha subunit 1)",-0.03,1.62,1.43,enough cells to score,inactive

Next part, starting with the last 3 of the part before.
Gene,p65 translocation robust z-score,"nuclear/cytoplasmic p65 ratio, rep 1","nuclear/cytoplasmic p65 ratio, rep 2",low cell count flag,activity call
Kash5 (KASH domain containing 5),-2.38,1.39,1.16,enough cells to score,active
4833432P19Rik (retired record),-0.15,1.27,1.24,enough cells to score,inactive
"Ralgapa1 (Ral GTPase activating protein, alpha subunit 1)",-0.03,1.62,1.43,enough cells to score,inactive
"Cacna1h (calcium channel, voltage-dependent, T type, alpha 1H subunit)",0.02,1.56,1.67,enough cells to score,inactive
Lin52 (lin-52 DREAM MuvB core complex component),,1.32,1.46,fewer than 50 cells per well; well left out of scoring,inactive
"Pabpc5 (poly(A) binding protein, cytoplasmic 5)",,1.4,1.22,fewer than 50 cells per well; well left out of scoring,inactive
Nopchap1 (NOP protein chaperone 1),0.26,1.66,1.77,enough cells to score,inactive
Gm4922 (predicted gene 4922),2.34,1.66,1.77,enough cells to score,inactive
Gnal,,1.37,1.42,fewer than 50 cells per well; well left out of scoring,inactive
E2f4 (E2F transcription factor 4),-0.88,1.35,1.27,enough cells to score,inactive
Elp3 (elongator acetyltransferase complex subunit 3),2.17,1.64,1.74,enough cells to score,inactive
Neil1 (nei endonuclease VIII-like 1 (E. coli)),-0.34,1.39,1.3,enough cells to score,inactive
"Ahdc1 (AT hook, DNA binding motif, containing 1)",1.01,1.64,2.04,enough cells to score,inactive
Cd44 (CD44 antigen),0.57,1.57,1.45,enough cells to score,inactive
"Grm6 (glutamate receptor, metabotropic 6)",,1.58,1.79,fewer than 50 cells per well; well left out of scoring,inactive
Ptbp1 (polypyrimidine tract binding protein 1),-0.64,1.44,1.3,enough cells to score,inactive
"Abca1 (ATP-binding cassette, sub-family A member 1)",-0.26,1.56,1.58,enough cells to score,inactive
Cdkn2aip (CDKN2A interacting protein),1.44,1.55,1.33,enough cells to score,inactive
Prcc (papillary renal cell carcinoma (translocation-associated)),1.5,1.65,1.65,enough cells to score,inactive
Smoc1 (SPARC related modular calcium binding 1),,1.54,1.08,fewer than 50 cells per well; well left out of scoring,inactive
Or14j3 (olfactory receptor family 14 subfamily J member 3),-1.86,1.33,1.26,enough cells to score,active
